Source: PubChem BioAssay AID1487 (National Center for Advancing Translational Sciences (NCATS), 2009)
The list shows a part of the results. Further columns of the screen follow, without active or inactive calls. The list favours compounds with an active or inconclusive main result. The note in brackets gives the kind of curve behind each potency; many fits are weak.

Assay: qHTS Assay for Modulators of Lamin A Splicing
Conditions: HeLa LMNA splicing GFP/RFP minigene ratio, 48 h
Outline: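 S3 HeLa cells stably expressing lamin A-EGFP splicing minigene plus DsRed2, 600 cells/well, 48 h compound exposure at 37C. Laser-scanning cytometry; analysed as GFP (500-530 nm)/RFP (575-640 nm) total intensity ratio; 0.5% DMSO vehicle.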

[1] = measured here: GFP splicing reporter channel
[2] = measured here: RFP viability control channel

Structure (SMILES)	AC50 [1]	AC50 [2]
O=C1CC(c2cc(Br)ccc2F)c2cc3c(cc2N1)CCC3 (stereo not given)	5.01 µM [falling, full curve]	4.47 µM [falling, full curve]
COc1ccc(-c2nc(C)c(CCNC(=O)C(=O)Nc3ccccc3OC)s2)cc1	44.7 µM [falling, partial curve, poor fit]	
Cc1ccc(C(C)C)c(OCC(=O)NCC2(N(C)C)CCCCC2)c1	0.0178 µM [rising, full curve, poor fit]	
COc1ccc(S(=O)(=O)Nc2ccc3c(c2)N(C(C)=O)CCC3)cc1F	0.00447 µM [rising, full curve, poor fit]	12.6 µM [rising, partial curve, poor fit]
COc1ccc(OC)c2sc(N3CCN(C(=O)C(C)(C)C)CC3)nc12	0.355 µM [falling, partial curve, poor fit]	
Clc1ccc(Sc2cc(Cl)c(-c3ccccc3)nn2)cc1		22.4 µM [falling, single point]
COc1ccc2c(c1)Cc1sc(NC(=O)c3cccs3)nc1-2		11.2 µM [rising, partial curve]
Cc1cccc(-c2nc(CSCC(=O)N3CCN(Cc4ccc5c(c4)OCO5)CC3)c(C)o2)c1		10 µM [rising, partial curve]
Cc1cccc(Oc2nc3c(C)cccn3c(=O)c2/C=C(\C#N)c2nc3ccccc3[nH]2)c1		0.0282 µM [falling, full curve]
Cc1cccc(C(=O)N[C@H](C(=O)Nc2nc(C)cs2)C(C)C)c1		20 µM [rising, single point]
CC(=O)c1c(OC(=O)c2ccccc2Br)ccc2c(C)cc(=O)oc12		35.5 µM [rising, single point]
O=c1c2cc3ccccc3n2cnn1Cc1ccccc1F		10 µM [falling, partial curve, poor fit]
COCCn1c(SCC(=O)c2ccc3c(c2)OCCO3)nnc1-c1ccoc1C	12.6 µM [rising, single point]	15.8 µM [rising, single point]
Cc1cc(C)c2nc(-c3ccccn3)cc(C(=O)NCc3ccc(S(N)(=O)=O)cc3)c2c1		31.6 µM [rising, single point]
Cc1cc(Nc2ccc3c(c2)OCCO3)c2cc(Cl)ccc2n1		11.2 µM [rising, single point]
O=C(Cn1cc(S(=O)(=O)Cc2ccccc2)c2ccccc21)Nc1ccccc1		15.8 µM [rising, single point]
Cc1nn(C)c(Cl)c1/C=N/OC(=O)c1ccc(F)cc1	1.26 µM [falling, full curve, poor fit]	

Four consecutive entries already listed, for reference:
Structure (SMILES)	AC50 [1]	AC50 [2]
Cc1cccc(-c2nc(CSCC(=O)N3CCN(Cc4ccc5c(c4)OCO5)CC3)c(C)o2)c1		10 µM [rising, partial curve]
Cc1cccc(Oc2nc3c(C)cccn3c(=O)c2/C=C(\C#N)c2nc3ccccc3[nH]2)c1		0.0282 µM [falling, full curve]
Cc1cccc(C(=O)N[C@H](C(=O)Nc2nc(C)cs2)C(C)C)c1		20 µM [rising, single point]
CC(=O)c1c(OC(=O)c2ccccc2Br)ccc2c(C)cc(=O)oc12		35.5 µM [rising, single point]
